Results on 4 molecules are retold here after publication PMC6743784.

Chains of the proteins cited; added tags and fusions are not shown.
UniProt Q9QR71: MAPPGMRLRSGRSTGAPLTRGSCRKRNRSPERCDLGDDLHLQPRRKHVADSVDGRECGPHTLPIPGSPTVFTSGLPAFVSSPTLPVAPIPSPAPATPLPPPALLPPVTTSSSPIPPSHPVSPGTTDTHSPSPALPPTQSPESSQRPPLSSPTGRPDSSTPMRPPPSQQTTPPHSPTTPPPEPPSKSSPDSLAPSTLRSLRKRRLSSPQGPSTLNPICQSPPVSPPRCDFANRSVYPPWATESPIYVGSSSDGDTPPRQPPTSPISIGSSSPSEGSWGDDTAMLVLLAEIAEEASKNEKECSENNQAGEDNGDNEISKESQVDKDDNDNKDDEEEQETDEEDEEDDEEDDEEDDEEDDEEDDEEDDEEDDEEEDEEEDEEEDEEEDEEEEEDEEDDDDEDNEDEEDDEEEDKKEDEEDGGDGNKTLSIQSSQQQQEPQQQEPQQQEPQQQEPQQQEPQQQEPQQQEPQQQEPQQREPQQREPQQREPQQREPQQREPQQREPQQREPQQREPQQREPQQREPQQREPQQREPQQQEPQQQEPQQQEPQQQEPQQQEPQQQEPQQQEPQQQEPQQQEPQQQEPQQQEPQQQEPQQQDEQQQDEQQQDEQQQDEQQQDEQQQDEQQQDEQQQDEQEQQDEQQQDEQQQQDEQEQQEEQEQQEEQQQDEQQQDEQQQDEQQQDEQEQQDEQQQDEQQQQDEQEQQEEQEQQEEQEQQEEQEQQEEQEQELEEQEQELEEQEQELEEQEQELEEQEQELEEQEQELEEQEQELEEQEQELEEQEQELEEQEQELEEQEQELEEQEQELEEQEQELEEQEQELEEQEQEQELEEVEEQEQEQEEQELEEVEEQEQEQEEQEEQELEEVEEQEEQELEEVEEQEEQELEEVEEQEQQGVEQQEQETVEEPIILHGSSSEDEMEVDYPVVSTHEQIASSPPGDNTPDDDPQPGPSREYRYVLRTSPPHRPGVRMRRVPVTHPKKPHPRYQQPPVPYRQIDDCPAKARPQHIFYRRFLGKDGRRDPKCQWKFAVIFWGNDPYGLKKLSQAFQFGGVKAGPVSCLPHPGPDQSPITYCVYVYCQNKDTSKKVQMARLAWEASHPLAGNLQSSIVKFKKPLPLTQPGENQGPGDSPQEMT
UniProt P09884: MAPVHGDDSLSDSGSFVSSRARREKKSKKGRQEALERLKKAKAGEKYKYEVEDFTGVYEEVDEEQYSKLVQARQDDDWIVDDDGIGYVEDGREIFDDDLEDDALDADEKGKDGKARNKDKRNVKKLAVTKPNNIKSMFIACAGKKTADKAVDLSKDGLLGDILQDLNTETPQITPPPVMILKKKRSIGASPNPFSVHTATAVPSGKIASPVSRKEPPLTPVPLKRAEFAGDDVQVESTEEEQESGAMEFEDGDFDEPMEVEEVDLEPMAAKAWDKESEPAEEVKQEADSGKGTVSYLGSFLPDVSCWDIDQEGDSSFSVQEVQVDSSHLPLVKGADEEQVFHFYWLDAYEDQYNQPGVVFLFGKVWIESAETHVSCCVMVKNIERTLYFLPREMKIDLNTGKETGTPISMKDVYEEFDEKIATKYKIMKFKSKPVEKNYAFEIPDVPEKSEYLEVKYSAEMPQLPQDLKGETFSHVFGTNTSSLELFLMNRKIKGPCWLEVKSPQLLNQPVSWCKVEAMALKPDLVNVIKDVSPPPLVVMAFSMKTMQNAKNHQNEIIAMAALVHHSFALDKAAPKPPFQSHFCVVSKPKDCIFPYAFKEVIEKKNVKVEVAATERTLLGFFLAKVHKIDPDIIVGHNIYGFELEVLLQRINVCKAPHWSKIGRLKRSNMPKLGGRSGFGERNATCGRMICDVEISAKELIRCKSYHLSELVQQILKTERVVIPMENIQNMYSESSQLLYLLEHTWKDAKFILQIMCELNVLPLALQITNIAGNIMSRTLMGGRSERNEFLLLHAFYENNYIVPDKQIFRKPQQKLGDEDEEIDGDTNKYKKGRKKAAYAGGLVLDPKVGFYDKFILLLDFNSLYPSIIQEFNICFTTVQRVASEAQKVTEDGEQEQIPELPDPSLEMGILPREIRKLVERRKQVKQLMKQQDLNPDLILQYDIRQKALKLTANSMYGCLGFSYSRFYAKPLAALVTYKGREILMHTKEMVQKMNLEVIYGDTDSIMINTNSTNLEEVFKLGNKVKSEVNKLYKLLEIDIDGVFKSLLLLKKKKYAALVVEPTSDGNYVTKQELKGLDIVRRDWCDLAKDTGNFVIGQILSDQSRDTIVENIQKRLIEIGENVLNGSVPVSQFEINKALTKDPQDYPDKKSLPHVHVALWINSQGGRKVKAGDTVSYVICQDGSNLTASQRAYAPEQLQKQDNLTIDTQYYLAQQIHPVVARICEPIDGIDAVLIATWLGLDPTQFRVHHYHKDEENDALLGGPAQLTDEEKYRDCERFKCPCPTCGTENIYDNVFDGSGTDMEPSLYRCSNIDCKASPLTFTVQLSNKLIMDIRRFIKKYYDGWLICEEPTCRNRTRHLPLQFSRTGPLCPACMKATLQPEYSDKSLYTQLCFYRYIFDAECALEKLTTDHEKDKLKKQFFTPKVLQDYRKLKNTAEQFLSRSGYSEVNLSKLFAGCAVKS

First the molecules themselves.
B1: origin recognition complex protein ORC3 (protein, UniProt Q9UBD5 1-711)
chain: MATSSMSKGCFVFKPNSKKRKISLPIEDYFNKGKNEPEDSKLRFETYQLIWQQMKSENERLQEELNKNLFDNLIEFLQKSHSGFQKNSRDLGGQIKLREIPTAALVLGVNVTDHDLTFGSLTEALQNNVTPYVVSLQAKDCPDMKHFLQKLISQLMDCCVDIKSKEEESVHVTQRKTHYSMDSLSSWYMTVTQKTDPKMLSKKRTTSSQWQSPPVVVILKDMESFATKVLQDFIIISSQHLHEFPLILIFGIATSPIIIHRLLPHAVSSLLCIELFQSLSCKEHLTTVLDKLLLTTQFPFKINEKVLQVLTNIFLYHDFSVQNFIKGLQLSLLEHFYSQPLSVLCCNLPEAKRRINFLSNNQCENIRRLPSFRRYVEKQASEKQVALLTNERYLKEETQLLLENLHVYHMNYFLVLRCLHKFTSSLPKYPLGRQIRELYCTCLEKNIWDSEEYASVLQLLRMLAKDELMTILEKCFKVFKSYCENHLGSTAKRIEEFLAQFQSLDETKEEEDASGSQPKGLQKTDLYHLQKSLLEMKELRRSKKQTKFEVLRENVVNFIDCLVREYLLPPETQPLHEVVYFSAAHALREHLNAAPRIALHTALNNPYYYLKNEALKSEEGCIPNIAPDICIAYKLHLECSRLINLVDWSEAFATVVTAAEKMDANSATSEEMNEIIHARFIRAVSELELLGFIKPTKQKTDHVARLTWGGC
B2: minichromosomal maintenance protein MCM3 (protein, UniProt P25205 1-808)
chain: MAGTVVLDDVELREAQRDYLDFLDDEEDQGIYQSKVRELISDNQYRLIVNVNDLRRKNEKRANRLLNNAFEELVAFQRALKDFVASIDATYAKQYEEFYVGLEGSFGSKHVSPRTLTSCFLSCVVCVEGIVTKCSLVRPKVVRSVHYCPATKKTIERRYSDLTTLVAFPSSSVYPTKDEENNPLETEYGLSVYKDHQTITIQEMPEKAPAGQLPRSVDVILDDDLVDKAKPGDRVQVVGTYRCLPGKKGGYTSGTFRTVLIACNVKQMSKDAQPSFSAEDIAKIKKFSKTRSKDIFDQLAKSLAPSIHGHDYVKKAILCLLLGGVERDLENGSHIRGDINILLIGDPSVAKSQLLRYVLCTAPRAIPTTGRGSSGVGLTAAVTTDQETGERRLEAGAMVLADRGVVCIDEFDKMSDMDRTAIHEVMEQGRVTIAKAGIHARLNARCSVLAAANPVYGRYDQYKTPMENIGLQDSLLSRFDLLFIMLDQMDPEQDREISDHVLRMHRYRAPGEQDGDAMPLGSAVDILATDDPNFSQEDQQDTQIYEKHDNLLHGTKKKKEKMVSAAFMKKYIHVAKIIKPVLTQESATYIAEEYSRLRSQDSMSSDTARTSPVTARTLETLIRLATAHAKARMSKTVDLQDAEEAVELVQYAYFKKVLEKEKKRKKRSEDESETEDEEEKSQEDQEQKRKRRKTRQPDAKDGDSYDPYDFSDTEEEMPQVHTPKTADSQETKESQKVELSESRLKAFKVALLDVFREAHAQSIGMNRLTESINRDSEEPFSSVEIQAALSKMQDDNQVMVSEGIIFLI
B3: origin recognition complex protein ORC1 (protein, UniProt Q13415 1-861)
chain: MAHYPTRLKTRKTYSWVGRPLLDRKLHYQTYREMCVKTEGCSTEIHIQIGQFVLIEGDDDENPYVAKLLELFEDDSDPPPKKRARVQWFVRFCEVPACKRHLLGRKPGAQEIFWYDYPACDSNINAETIIGLVRVIPLAPKDVVPTNLKNEKTLFVKLSWNEKKFRPLSSELFAELNKPQESAAKCQKPVRAKSKSAESPSWTPAEHVAKRIESRHSASKSRQTPTHPLTPRARKRLELGNLGNPQMSQQTSCASLDSPGRIKRKVAFSEITSPSKRSQPDKLQTLSPALKAPEKTRETGLSYTEDDKKASPEHRIILRTRIAASKTIDIREERTLTPISGGQRSSVVPSVILKPENIKKRDAKEAKAQNEATSTPHRIRRKSSVLTMNRIRQQLRFLGNSKSDQEEKEILPAAEISDSSSDEEEASTPPLPRRAPRTVSRNLRSSLKSSLHTLTKVPKKSLKPRTPRCAAPQIRSRSLAAQEPASVLEEARLRLHVSAVPESLPCREQEFQDIYNFVESKLLDHTGGCMYISGVPGTGKTATVHEVIRCLQQAAQANDVPPFQYIEVNGMKLTEPHQVYVQILQKLTGQKATANHAAELLAKQFCTRGSPQETTVLLVDELDLLWTHKQDIMYNLFDWPTHKEARLVVLAIANTMDLPERIMMNRVSSRLGLTRMCFQPYTYSQLQQILRSRLKHLKAFEDDAIQLVARKVAALSGDARRCLDICRRATEICEFSQQKPDSPGLVTIAHSMEAVDEMFSSSYITAIKNSSVLEQSFLRAILAEFRRSGLEEATFQQIYSQHVALCRMEGLPYPTMSETMAVCSHLGSCRLLLVEPSRNDLLLRVRLNVSQDDVLYALKDE

Results are given in words; binding and its absence hold for the method and conditions named. Binding seen in cells or lysates may run through a third protein. Some results given as binding are weak or reduced against the parent protein; the word gives no strength.

This assay addresses KSHV-encoded latency associated nuclear antigen (LANA), FLAG-tagged (KSHV (human herpesvirus 8)) (UniProt Q9QR71). The assay is described as follows: co-IP; anti-FLAG immuno-precipitation from whole cell lysates of HEK293T cells expressing FLAG-LANA and grown under hypoxic conditions (1% O2); lysates pre-cleared, Protein Agarose A/G beads, washed 3 times with 1X PBS; western blot for endogenous proteins.
As for “DNA polymerase 1 alpha (from UniProt P09884 1-1462)”, the binding entry was “binds”.
The result for B1 reads “binds”.
B2: the binding result is “binds”.
The result for B3 reads “binds”.
